Consider 3 molecules from doi:10.1101/2023.10.24.563883.

The chains behind the UniProt entries cited, without tags or fusion partners. Residues count along the entry.
UniProt Q99PJ1, residues 27-1943: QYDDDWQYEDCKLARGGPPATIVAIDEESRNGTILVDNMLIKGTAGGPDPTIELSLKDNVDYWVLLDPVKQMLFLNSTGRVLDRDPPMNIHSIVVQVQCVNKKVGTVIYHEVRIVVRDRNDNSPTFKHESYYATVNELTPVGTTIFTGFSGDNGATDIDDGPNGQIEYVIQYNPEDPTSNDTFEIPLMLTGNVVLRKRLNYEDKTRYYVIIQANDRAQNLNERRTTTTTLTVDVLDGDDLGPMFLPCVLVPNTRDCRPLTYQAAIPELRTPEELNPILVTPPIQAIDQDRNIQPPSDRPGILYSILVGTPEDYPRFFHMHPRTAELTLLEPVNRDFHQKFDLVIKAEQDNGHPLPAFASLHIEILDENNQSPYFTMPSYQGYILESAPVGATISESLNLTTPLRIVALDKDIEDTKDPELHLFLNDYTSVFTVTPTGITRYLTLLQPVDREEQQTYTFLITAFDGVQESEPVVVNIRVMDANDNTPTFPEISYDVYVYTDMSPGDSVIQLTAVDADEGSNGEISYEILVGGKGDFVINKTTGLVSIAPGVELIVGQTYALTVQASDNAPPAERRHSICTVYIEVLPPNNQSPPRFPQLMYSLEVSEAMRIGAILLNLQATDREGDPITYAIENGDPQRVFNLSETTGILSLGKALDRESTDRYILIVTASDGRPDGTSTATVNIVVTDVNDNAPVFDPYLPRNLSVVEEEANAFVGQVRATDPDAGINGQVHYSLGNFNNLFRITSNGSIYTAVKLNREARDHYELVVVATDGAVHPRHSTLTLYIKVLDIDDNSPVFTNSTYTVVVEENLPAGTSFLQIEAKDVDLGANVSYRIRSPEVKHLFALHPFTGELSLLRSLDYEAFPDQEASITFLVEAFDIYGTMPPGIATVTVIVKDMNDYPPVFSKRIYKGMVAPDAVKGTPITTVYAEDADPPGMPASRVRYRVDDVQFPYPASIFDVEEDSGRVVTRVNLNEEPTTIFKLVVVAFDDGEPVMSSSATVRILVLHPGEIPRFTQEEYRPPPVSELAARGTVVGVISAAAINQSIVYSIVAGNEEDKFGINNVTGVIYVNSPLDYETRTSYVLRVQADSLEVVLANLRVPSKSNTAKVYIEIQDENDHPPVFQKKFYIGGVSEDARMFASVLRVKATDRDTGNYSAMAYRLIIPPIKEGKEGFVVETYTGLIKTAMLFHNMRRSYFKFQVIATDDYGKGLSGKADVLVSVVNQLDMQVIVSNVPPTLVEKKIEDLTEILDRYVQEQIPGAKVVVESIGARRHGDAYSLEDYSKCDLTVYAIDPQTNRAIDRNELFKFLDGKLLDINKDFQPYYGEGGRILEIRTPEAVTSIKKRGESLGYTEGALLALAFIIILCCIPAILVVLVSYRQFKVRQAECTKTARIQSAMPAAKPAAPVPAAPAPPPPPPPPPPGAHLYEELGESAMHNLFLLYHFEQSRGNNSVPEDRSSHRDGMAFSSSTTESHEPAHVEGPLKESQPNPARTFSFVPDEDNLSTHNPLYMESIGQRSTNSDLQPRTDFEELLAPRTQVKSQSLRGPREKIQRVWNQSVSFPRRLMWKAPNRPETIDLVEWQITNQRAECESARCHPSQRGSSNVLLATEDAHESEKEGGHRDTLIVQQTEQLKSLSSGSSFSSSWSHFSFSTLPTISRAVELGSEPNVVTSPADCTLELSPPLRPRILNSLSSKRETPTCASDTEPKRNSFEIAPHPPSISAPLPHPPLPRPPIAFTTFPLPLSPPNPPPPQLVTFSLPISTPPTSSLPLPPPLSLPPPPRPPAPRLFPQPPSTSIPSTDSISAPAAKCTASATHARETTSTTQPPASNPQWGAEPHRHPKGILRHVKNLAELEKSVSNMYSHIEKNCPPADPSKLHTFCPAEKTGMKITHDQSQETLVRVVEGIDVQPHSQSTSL

In this experiment the target is T1, LPHN2 (endogenous, mouse cochlea) (mouse (endogenous in cochlea)) (UniProt Q8JZZ7).
T1 sequence: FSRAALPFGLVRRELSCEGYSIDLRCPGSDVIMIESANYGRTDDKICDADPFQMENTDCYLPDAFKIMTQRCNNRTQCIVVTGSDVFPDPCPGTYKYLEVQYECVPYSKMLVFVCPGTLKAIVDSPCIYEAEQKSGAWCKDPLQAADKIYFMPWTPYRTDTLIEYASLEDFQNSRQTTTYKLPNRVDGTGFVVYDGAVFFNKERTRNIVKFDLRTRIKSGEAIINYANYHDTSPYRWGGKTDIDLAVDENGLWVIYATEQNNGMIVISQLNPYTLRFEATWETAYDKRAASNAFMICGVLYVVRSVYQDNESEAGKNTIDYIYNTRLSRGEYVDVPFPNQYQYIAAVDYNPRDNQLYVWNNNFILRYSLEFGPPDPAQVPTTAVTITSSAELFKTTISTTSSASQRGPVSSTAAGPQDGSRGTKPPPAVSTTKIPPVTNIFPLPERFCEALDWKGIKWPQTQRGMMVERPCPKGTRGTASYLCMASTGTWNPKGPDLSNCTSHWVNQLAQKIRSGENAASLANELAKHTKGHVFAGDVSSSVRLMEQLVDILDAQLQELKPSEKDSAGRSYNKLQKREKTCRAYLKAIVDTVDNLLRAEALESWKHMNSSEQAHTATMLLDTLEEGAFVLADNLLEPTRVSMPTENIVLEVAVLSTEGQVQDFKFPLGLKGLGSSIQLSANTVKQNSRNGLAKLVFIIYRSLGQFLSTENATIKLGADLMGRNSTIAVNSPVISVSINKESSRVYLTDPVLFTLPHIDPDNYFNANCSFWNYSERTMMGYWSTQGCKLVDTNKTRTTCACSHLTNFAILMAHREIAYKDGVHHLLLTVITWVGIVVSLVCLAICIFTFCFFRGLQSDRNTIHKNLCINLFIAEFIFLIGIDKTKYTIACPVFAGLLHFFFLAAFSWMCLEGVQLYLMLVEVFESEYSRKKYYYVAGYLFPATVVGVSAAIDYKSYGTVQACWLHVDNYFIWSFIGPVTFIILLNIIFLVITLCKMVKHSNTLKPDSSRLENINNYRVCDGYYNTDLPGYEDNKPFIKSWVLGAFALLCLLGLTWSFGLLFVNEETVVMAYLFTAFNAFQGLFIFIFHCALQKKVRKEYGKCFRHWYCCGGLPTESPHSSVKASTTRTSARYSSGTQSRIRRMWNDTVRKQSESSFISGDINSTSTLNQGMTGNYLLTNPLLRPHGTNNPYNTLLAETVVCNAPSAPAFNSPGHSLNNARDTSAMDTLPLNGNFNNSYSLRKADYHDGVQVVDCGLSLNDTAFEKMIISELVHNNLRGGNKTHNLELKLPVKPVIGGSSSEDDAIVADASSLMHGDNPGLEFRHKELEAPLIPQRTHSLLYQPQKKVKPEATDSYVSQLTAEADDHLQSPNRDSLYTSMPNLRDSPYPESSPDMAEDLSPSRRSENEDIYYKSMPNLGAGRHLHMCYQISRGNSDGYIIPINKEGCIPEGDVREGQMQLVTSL
In words: co-IP.

Results are given in words; binding and its absence hold for the method and conditions named. Binding seen in cells or lysates may run through a third protein. Some binding calls cover weakened binding; strength is not graded here.

As for “PCDH15 (endogenous, mouse cochlea) (from UniProt Q99PJ1 27-1943)”, the binding entry was “binds”.

B1: TMIE (endogenous, mouse cochlea) (protein, UniProt Q8K467 29-153)
chain: QLVEPSTAPPKPKPPPLTKETVVFWDMRLWHVVGIFSLFVLSIIITLCCVFNCRVPRTRKEIEARYLQRKAAKMYTDKLETVPPLNELTEIPGEDKKKKKKDSVDTVAIKVEEDEKNEAKKKGEK
With B1, the binding entry is listed as “binds”.

B2: TMC1 (endogenous, mouse cochlea) (protein, UniProt Q8R4P5 1-757)
chain: MLQIQVEEKEEDTEESSSEEEEDKLPRRESLRPKRKRTRDVINEDDPEPEPEDEETRKAREKERRRRLRRGAEEEEEIDEEELERLKALLDENRQMIATVKCKPWKMEKKIEVLKEAKKFVSENEGALGKGKGKKWFAFKMMMAKKWAKFLRDFENFKAACVPWENKIKAIESQFGSSVASYFLFLRWMYGVNMVLFVLTFSLIMLPEYLWGLPYGSLPRKTVPRAEEASAANFGVLYDFNGLAQYSVLFYGYYDNKRTIGWLNFRLPLSYFLVGIMCIGYSFLVVLKAMTKNIGDDGGGDDNTFNFSWKVFCSWDYLIGNPETADNKFNSITMNFKEAIIEERAAQVEENIHLIRFLRFLANFFVFLTLGASGYLIFWAVKRSQEFAQQDPDTLGWWEKNEMNMVMSLLGMFCPTLFDLFAELEDYHPLIALKWLLGRIFALLLGNLYVFILALMDEINNKIEEEKLVKANITLWEANMIKAYNESLSGLSGNTTGAPFFVHPADVPRGPCWETMVGQEFVRLTVSDVLTTYVTILIGDFLRACFVRFCNYCWCWDLEYGYPSYTEFDISGNVLALIFNQGMIWMGSFFAPSLPGINILRLHTSMYFQCWAVMCCNVPEARVFKASRSNNFYLGMLLLILFLSTMPVLYMIVSLPPSFDCGPFSGKNRMFEVIGETLEHDFPSWMAKILRQLSNPGLVIAVILVMVLTIYYLNATAKGQKAANLDLKKKMKQQALENKMRNKKMAAARAAAAAGGQ
For B2, the binding result is recorded as “binds”.
